Measurements: US8461085B2, “Bioherbicide from Festuca spp” (Cornell Research Foundation, Inc., priority 2005, dated 2013)
Some results were stated once for a whole list of compounds, not compound by compound.

Tested on: lettuce seedlings (Lactuca sativa L.)
Test: Petri-dish bioassay, radicle elongation in lettuce seedlings
Conditions: in vivo

## N[C@@H](Cc1ccc(O)cc1)C(=O)O [p-tyrosine, tyrosine]
  concentration at which lettuce seedling growth is stimulated: ≥ 50 µM
